Results as given in article doi:10.1101/2023.08.10.552479.
These are yes or no findings as the source states them, for the method shown. Binding seen in cells or lysates may run through a third protein. Some results given as binding are weak or reduced against the parent protein; the word gives no strength.

Protein sequences, listed by entry. Tags and fused reporters are not part of them.
UniProt Q9UN81: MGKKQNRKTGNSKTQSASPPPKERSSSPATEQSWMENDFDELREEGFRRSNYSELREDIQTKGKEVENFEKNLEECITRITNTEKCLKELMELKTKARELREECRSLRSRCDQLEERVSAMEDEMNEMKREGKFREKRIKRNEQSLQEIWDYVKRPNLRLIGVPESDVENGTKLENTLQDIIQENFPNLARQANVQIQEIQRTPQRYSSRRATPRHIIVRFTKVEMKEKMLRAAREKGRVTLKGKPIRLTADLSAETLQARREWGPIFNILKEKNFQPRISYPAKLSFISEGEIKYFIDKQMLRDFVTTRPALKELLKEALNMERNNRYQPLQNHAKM
UniProt P20700: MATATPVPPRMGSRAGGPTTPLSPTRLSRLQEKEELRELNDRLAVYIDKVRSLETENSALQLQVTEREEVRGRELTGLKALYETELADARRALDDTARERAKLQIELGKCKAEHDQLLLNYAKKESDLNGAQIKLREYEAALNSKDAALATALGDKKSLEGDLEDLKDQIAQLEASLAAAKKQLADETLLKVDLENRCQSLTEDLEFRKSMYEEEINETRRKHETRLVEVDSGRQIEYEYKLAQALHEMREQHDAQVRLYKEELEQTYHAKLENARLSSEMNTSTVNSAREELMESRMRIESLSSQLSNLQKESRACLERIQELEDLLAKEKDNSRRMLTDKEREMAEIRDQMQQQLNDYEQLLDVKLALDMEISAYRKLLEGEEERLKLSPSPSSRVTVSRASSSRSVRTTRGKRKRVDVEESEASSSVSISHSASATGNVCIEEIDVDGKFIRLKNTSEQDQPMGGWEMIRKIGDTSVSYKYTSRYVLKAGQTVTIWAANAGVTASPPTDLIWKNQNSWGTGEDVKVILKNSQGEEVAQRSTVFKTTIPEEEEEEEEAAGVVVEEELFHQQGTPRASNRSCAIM
UniProt P49790: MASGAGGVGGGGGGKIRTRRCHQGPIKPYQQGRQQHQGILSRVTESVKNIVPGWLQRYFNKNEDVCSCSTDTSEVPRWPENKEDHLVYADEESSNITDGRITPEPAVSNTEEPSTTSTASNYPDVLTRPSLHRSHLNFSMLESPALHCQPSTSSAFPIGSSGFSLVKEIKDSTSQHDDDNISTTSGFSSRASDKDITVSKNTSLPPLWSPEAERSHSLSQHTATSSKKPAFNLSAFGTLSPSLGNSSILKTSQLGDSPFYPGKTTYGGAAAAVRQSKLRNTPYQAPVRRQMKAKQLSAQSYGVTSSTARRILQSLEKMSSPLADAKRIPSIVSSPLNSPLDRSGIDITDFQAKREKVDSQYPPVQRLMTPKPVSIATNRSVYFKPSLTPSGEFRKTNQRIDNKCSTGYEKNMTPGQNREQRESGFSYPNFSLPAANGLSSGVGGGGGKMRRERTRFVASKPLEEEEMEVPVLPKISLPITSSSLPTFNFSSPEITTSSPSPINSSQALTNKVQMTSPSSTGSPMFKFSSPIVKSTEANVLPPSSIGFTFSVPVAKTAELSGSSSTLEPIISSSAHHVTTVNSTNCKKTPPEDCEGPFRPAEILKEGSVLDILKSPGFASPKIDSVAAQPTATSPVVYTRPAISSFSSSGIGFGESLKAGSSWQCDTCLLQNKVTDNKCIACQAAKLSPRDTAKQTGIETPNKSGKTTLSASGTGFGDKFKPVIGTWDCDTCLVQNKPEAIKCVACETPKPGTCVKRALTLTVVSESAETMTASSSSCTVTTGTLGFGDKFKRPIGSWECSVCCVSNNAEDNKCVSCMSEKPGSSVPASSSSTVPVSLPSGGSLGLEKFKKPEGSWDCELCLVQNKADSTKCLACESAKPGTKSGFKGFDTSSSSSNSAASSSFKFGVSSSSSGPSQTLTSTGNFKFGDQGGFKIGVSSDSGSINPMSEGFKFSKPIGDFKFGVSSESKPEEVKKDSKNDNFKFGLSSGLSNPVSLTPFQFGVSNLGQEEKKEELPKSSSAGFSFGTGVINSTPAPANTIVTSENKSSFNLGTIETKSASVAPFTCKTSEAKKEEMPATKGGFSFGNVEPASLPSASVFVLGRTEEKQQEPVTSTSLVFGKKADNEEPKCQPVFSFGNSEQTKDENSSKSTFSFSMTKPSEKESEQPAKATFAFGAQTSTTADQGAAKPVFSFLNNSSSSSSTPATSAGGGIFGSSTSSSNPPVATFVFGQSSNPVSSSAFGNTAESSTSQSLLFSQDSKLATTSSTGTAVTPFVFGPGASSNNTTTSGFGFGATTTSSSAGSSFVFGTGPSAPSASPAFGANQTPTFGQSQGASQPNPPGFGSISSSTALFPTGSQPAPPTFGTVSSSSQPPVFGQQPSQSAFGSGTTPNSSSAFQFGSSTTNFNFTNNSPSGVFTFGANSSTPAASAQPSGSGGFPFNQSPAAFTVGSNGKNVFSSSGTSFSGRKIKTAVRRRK
UniProt Q14974: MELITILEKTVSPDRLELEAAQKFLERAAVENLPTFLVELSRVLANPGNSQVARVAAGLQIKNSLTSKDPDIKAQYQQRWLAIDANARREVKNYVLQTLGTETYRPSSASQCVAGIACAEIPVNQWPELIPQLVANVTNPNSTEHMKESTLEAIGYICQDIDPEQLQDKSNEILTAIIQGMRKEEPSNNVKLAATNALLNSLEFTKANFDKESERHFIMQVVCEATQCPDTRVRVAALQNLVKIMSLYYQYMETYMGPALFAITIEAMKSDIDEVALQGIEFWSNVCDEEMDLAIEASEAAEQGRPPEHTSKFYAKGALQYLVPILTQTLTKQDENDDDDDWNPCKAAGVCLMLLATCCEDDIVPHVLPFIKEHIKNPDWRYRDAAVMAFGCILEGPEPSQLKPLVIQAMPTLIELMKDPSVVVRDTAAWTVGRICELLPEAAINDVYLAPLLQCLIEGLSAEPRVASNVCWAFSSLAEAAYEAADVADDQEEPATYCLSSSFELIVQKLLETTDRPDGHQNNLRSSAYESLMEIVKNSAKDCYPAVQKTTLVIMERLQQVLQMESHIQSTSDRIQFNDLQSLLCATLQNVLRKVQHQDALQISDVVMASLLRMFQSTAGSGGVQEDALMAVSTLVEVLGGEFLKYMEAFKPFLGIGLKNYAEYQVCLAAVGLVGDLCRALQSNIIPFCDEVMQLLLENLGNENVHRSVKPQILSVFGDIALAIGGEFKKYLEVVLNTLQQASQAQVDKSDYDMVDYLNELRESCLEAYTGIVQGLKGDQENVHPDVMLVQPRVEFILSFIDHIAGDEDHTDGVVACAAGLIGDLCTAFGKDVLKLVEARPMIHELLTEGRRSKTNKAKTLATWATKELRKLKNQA

Assays:
[1] = biological target: LINE-1 encoded ORF1p (human (endogenous in LUHMES)) (UniProt Q9UN81); test: co-IP
[2] = biological target: LINE-1 encoded ORF1p (human (endogenous in LUHMES)) (UniProt Q9UN81); test: proximity ligation

binding [1] | binding [2] | Substance
binds | binds | Lamin B1 (from UniProt P20700 1-586)
 | binds | NUP153 (from UniProt P49790 1-1475)
 | binds | KPNB1 (from UniProt Q14974 1-876)
